{
  "sequences": {"note": "By UniProt entry, the sequences of proteins in these tests, tags left out. Where a name states a change or a piece, a line headed by the entry shows the natural chain unless it says otherwise.", "UniProt P62318, whole entry, looked up": "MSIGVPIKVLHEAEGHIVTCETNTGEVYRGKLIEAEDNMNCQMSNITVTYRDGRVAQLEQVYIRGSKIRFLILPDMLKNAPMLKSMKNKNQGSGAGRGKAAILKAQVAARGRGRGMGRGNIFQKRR", "UniProt Q7KZF4": "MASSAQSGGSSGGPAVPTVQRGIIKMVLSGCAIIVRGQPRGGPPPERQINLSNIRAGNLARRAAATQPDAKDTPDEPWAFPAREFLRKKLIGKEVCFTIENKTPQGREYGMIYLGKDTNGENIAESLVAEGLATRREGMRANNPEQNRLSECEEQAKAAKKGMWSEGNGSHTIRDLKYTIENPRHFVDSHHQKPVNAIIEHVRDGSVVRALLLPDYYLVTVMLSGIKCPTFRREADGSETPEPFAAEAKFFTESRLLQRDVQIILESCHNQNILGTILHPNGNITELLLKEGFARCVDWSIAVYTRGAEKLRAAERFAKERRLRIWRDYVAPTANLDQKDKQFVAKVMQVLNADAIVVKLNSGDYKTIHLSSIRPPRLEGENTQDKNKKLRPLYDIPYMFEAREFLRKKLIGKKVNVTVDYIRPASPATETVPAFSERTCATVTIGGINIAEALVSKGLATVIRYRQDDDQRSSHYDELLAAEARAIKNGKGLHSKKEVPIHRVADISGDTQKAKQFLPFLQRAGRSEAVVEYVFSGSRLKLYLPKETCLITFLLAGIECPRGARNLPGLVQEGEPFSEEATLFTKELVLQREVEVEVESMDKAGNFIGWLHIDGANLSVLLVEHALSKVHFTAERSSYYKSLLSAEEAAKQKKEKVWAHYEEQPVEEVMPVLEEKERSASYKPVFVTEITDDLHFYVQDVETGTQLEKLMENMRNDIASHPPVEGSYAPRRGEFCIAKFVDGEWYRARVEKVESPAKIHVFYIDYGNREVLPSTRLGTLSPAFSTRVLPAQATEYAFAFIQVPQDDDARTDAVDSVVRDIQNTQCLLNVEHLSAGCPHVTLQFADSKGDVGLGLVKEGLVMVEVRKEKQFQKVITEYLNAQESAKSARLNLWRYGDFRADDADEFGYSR", "UniProt Q92925, whole entry, looked up": "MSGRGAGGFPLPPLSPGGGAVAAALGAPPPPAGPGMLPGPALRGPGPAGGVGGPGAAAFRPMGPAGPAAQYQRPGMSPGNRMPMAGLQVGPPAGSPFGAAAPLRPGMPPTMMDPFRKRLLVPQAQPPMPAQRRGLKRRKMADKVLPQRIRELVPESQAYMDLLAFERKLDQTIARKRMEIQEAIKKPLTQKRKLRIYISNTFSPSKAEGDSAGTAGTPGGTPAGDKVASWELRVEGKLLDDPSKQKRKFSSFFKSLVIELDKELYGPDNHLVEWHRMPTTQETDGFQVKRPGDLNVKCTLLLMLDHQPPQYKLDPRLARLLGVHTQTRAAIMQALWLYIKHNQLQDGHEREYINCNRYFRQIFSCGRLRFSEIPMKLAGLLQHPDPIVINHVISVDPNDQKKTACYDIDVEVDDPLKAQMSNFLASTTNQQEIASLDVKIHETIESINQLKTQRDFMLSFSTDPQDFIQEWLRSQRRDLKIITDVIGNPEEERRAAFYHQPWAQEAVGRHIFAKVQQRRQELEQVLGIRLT", "UniProt O60271": "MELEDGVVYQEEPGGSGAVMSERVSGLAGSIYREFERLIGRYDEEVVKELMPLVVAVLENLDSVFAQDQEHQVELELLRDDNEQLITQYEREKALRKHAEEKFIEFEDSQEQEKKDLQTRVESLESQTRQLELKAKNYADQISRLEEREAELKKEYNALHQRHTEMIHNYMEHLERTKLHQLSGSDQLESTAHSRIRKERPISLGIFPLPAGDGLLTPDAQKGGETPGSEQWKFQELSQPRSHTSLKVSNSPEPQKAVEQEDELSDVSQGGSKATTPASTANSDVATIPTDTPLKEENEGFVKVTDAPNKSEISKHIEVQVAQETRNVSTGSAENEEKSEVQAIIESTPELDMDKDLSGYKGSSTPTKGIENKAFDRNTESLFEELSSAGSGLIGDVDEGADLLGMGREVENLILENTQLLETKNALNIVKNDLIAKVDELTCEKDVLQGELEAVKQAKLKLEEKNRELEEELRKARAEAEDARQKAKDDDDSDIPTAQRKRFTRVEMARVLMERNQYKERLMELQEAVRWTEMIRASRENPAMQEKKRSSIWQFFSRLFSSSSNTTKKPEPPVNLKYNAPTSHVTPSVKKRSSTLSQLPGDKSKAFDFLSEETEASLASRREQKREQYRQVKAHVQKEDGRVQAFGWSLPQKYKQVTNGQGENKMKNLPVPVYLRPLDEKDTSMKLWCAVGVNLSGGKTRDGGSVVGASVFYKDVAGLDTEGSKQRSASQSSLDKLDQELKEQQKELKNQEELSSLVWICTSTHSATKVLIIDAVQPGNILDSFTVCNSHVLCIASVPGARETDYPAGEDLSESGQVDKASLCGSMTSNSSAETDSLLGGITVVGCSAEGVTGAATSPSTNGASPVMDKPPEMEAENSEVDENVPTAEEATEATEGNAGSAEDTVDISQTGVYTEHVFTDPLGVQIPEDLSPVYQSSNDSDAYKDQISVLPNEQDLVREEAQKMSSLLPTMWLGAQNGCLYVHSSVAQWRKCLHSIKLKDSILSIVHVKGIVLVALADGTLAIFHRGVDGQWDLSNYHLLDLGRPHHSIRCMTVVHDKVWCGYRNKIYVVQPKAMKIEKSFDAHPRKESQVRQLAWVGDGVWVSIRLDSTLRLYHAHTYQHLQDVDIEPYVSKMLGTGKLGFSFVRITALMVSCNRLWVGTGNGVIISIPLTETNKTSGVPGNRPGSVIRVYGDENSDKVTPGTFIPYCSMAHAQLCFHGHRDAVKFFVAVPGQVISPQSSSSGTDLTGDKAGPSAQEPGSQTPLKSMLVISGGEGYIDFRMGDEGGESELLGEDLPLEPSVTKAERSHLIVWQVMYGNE", "UniProt Q9H0W8": "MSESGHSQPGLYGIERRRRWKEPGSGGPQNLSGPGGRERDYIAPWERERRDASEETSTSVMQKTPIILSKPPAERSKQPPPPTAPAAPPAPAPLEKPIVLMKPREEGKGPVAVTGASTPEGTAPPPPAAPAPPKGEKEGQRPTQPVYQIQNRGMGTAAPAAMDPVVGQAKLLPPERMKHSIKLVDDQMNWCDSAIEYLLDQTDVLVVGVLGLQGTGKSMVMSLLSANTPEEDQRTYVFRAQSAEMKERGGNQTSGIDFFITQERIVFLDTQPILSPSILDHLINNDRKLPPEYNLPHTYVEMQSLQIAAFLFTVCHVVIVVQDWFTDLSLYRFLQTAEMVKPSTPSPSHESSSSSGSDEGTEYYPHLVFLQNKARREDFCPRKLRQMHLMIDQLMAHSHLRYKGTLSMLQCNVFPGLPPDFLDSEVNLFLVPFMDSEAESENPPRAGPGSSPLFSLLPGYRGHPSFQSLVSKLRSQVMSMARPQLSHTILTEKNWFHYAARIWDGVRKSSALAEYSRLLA", "UniProt O00161": "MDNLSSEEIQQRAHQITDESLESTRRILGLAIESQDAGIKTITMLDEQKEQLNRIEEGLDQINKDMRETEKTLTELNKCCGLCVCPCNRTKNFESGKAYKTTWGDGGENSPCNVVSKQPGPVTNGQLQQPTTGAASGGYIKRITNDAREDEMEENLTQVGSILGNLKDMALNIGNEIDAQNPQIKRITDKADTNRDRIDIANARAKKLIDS", "UniProt P08579, whole entry, looked up": "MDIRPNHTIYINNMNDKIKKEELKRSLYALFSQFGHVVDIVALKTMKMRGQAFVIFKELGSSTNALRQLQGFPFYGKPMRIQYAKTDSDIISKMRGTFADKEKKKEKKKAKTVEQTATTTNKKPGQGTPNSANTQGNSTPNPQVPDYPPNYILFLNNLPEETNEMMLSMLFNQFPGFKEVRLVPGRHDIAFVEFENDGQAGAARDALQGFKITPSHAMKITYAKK", "UniProt Q9BX66": "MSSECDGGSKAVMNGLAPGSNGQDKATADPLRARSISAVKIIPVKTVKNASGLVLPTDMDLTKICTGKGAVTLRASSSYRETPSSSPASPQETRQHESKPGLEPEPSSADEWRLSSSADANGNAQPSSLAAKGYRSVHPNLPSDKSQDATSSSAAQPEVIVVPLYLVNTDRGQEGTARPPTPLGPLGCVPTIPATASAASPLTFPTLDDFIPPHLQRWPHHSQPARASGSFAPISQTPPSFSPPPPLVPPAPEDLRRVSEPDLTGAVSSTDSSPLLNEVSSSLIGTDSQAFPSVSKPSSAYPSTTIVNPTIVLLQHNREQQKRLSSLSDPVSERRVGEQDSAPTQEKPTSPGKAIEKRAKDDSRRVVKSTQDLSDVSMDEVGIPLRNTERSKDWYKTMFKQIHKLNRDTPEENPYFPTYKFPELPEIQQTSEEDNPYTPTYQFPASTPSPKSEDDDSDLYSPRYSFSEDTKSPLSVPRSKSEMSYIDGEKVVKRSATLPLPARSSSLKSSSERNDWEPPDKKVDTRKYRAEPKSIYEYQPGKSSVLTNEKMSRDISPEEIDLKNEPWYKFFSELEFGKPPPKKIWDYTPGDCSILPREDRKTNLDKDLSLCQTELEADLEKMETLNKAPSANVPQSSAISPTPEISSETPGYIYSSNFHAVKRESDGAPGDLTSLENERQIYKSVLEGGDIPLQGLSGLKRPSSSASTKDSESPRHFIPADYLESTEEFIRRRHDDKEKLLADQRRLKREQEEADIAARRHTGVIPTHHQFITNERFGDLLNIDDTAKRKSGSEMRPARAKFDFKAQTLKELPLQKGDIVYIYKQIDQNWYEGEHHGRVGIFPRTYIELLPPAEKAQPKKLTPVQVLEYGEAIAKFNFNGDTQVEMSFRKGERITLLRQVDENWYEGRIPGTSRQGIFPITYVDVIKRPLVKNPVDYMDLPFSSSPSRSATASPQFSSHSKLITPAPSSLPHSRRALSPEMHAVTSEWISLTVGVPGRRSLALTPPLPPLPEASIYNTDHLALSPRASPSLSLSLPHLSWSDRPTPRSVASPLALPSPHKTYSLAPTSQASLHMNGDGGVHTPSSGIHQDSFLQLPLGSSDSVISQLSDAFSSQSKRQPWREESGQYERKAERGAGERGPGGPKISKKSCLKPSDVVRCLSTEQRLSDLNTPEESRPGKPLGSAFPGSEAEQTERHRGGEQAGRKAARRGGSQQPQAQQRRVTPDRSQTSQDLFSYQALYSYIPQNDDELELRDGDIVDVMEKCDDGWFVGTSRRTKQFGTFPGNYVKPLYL", "UniProt Q13573": "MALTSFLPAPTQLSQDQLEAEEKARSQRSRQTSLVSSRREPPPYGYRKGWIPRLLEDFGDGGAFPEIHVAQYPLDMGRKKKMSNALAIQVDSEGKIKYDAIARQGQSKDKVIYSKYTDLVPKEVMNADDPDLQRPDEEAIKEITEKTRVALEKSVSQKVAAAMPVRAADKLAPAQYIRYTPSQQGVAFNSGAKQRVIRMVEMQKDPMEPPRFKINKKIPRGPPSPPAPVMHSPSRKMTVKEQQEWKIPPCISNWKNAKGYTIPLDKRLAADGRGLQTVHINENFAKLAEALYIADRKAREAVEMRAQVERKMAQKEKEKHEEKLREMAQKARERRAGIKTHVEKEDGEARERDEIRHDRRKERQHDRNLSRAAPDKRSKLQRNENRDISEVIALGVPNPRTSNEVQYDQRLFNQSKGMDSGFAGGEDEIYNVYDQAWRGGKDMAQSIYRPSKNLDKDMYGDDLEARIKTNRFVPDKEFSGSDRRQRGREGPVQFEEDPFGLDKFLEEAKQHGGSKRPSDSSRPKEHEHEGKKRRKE", "UniProt Q7Z3B0": "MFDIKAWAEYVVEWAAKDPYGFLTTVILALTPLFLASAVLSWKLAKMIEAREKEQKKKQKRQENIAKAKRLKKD", "UniProt P62308, whole entry, looked up": "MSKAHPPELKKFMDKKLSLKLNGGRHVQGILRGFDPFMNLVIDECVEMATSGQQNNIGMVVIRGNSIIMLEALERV", "UniProt Q15036": "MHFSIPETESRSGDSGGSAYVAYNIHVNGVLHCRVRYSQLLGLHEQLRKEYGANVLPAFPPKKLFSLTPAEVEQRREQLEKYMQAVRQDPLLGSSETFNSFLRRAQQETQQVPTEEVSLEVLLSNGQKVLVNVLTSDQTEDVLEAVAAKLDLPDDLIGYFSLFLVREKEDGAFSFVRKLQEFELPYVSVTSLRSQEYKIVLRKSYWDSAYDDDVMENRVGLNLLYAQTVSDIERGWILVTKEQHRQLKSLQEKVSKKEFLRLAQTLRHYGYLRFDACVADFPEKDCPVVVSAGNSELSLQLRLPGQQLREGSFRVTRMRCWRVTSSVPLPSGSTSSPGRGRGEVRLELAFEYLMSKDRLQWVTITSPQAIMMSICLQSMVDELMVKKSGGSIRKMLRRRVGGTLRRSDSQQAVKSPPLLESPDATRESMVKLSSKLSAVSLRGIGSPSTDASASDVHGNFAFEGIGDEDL", "UniProt Q53HV7": "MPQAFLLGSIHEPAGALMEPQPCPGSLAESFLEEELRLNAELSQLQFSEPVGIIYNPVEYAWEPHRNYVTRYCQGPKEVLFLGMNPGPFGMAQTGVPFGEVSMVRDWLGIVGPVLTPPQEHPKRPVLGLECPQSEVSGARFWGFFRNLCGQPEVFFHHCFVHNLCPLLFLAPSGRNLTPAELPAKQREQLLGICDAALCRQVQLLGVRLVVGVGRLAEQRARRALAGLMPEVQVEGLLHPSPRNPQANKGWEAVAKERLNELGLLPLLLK"},
  "source": "the supplement of paper PMC10849652",
  "note": "The list shows a part of the results.",
  "data": [
    {"compound": "CNC(=O)c1ccc(Nc2ncc(C(F)(F)F)c(NCc3nccnc3N(C)S(C)(=O)=O)n2)cc1 [defactinib]", "assay": "log2 fold change, soluble protein after heating vs DMSO (PISA); higher = thermal stabilisation; K562 lysate, 10 uM; active = over 0.2 and 3.5 SD of the protein, either way, in both replicates (recomputed)", "how_it_was_run": "(§1)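 Following dounce homogenisation of K562 pellets in PBS pH 7.4 with 1 mM MgCl2, crude extract at 1 mg/mL protein was incubated for 30 min with 10 μM compound. Aliquots were then heated for 3 min over 48°C-58°C and pooled, NP-40 was added to 0.5% at 4°C, and soluble protein was recovered as the supernatant at 21,000xg for 90 min. Channel-sum-equalised TMTpro 16plex LC-MS/MS quantified this protein. Each value, from duplicates, is a log-two fold change in thermal stability relative to solvent controls.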", "values": [
      {"target": "SNX6, A0A0A0MRI2", "log2 fold change": "inactive: 0.008"},
      {"target": "SNCG (UniProt O76070)", "log2 fold change": "inactive: 0.02"},
      {"target": "SMNDC1 (UniProt O75940)", "log2 fold change": "inactive: -0.004"},
      {"target": "SNRNP200 (UniProt O75643)", "log2 fold change": "inactive: 0.008"},
      {"target": "SOS1 (UniProt Q07889)", "log2 fold change": "inactive: -0.055"},
      {"target": "SMC3 (UniProt Q9UQE7)", "log2 fold change": "inactive: 0.002"},
      {"target": "SMARCA5 (UniProt O60264)", "log2 fold change": "inactive: -0.027"},
      {"target": "SMARCB1 (UniProt Q12824)", "log2 fold change": "inactive: 0.018"},
      {"target": "SNRPD3 (UniProt P62318)", "log2 fold change": "inactive: -0.046"},
      {"target": "SON isoform 9 (UniProt P18583)", "log2 fold change": "inactive: -0.028"},
      {"target": "SND1 (UniProt Q7KZF4)", "log2 fold change": "inactive: 0.019"},
      {"target": "SPARC (UniProt P09486)", "log2 fold change": "inactive: 0.02"},
      {"target": "SMARCD2 (UniProt Q92925)", "log2 fold change": "inactive: -0.023"},
      {"target": "SPAG9 (UniProt O60271)", "log2 fold change": "inactive: -0.03"},
      {"target": "SMG9 (UniProt Q9H0W8)", "log2 fold change": "inactive: 0.034"},
      {"target": "SNAP23 (UniProt O00161)", "log2 fold change": "inactive: -0.002"},
      {"target": "SNRPB2 (UniProt P08579)", "log2 fold change": "inactive: 0.035"},
      {"target": "SNX1 (UniProt Q13596)", "log2 fold change": "inactive: -0.001"},
      {"target": "SORBS1 isoform 8 (UniProt Q9BX66)", "log2 fold change": "inactive: -0.046"},
      {"target": "SMG5 (UniProt Q9UPR3)", "log2 fold change": "inactive: 0.04"},
      {"target": "SNW1 (UniProt Q13573)", "log2 fold change": "inactive: 0.006"},
      {"target": "SMIM15 (UniProt Q7Z3B0)", "log2 fold change": "inactive: -0.013"},
      {"target": "SNRPG (UniProt P62308)", "log2 fold change": "inactive: 0.014"},
      {"target": "SNX17 (UniProt Q15036)", "log2 fold change": "inactive: 0.033"},
      {"target": "SMUG1 (UniProt Q53HV7)", "log2 fold change": "inactive: 0.081"},
      {"target": "SNRPD2 (UniProt P62316)", "log2 fold change": "inactive: -0.019"},
      {"target": "SMYD5 (UniProt Q6GMV2)", "log2 fold change": "inactive: -0.024"},
      {"target": "SNX9 (UniProt Q9Y5X1)", "log2 fold change": "inactive: 0.027"},
      {"target": "SNRPB isoform 3 (UniProt P14678)", "log2 fold change": "inactive: 0.008"},
      {"target": "SNRPC (UniProt Q5TAL2)", "log2 fold change": "inactive: -0.039"}
    ]},
    {"compound": "CNc1nc(-c2ccc3c(N)n[nH]c3c2)cc(N2C[C@@H](C(=O)NC3CCCCC3)CC[C@H]2C)n1", "assay": "log2 fold change, soluble protein after heating vs DMSO (PISA); higher = thermal stabilisation; K562 lysate, 10 uM; active = over 0.2 and 3.5 SD of the protein, either way, in both replicates (recomputed)", "how_it_was_run": "as §1", "values": [
      {"target": "SNX6, A0A0A0MRI2", "log2 fold change": "inactive: -0.024"},
      {"target": "SNCG (UniProt O76070)", "log2 fold change": "inactive: 0.09"},
      {"target": "SMNDC1 (UniProt O75940)", "log2 fold change": "inactive: 0.046"},
      {"target": "SNRNP200 (UniProt O75643)", "log2 fold change": "inactive: -0.002"},
      {"target": "SOS1 (UniProt Q07889)", "log2 fold change": "inactive: 0.037"},
      {"target": "SMC3 (UniProt Q9UQE7)", "log2 fold change": "inactive: -0.036"},
      {"target": "SMARCA5 (UniProt O60264)", "log2 fold change": "inactive: 0.024"},
      {"target": "SMARCB1 (UniProt Q12824)", "log2 fold change": "inactive: 0.003"},
      {"target": "SNRPD3 (UniProt P62318)", "log2 fold change": "inactive: -0.068"},
      {"target": "SON isoform 9 (UniProt P18583)", "log2 fold change": "inactive: -0.022"},
      {"target": "SND1 (UniProt Q7KZF4)", "log2 fold change": "inactive: -0.019"},
      {"target": "SPARC (UniProt P09486)", "log2 fold change": "inactive: -0.101"},
      {"target": "SMARCD2 (UniProt Q92925)", "log2 fold change": "inactive: -0.015"},
      {"target": "SPAG9 (UniProt O60271)", "log2 fold change": "inactive: -0.002"},
      {"target": "SMG9 (UniProt Q9H0W8)", "log2 fold change": "inactive: -0.091"},
      {"target": "SNAP23 (UniProt O00161)", "log2 fold change": "inactive: -0.01"},
      {"target": "SNRPB2 (UniProt P08579)", "log2 fold change": "inactive: 0.045"},
      {"target": "SNX1 (UniProt Q13596)", "log2 fold change": "inactive: -0.017"},
      {"target": "SORBS1 isoform 8 (UniProt Q9BX66)", "log2 fold change": "inactive: 0.046"},
      {"target": "SMG5 (UniProt Q9UPR3)", "log2 fold change": "inactive: -0.037"},
      {"target": "SNW1 (UniProt Q13573)", "log2 fold change": "inactive: 0.073"},
      {"target": "SMIM15 (UniProt Q7Z3B0)", "log2 fold change": "inactive: 0.123"},
      {"target": "SNRPG (UniProt P62308)", "log2 fold change": "inactive: 0.063"},
      {"target": "SNX17 (UniProt Q15036)", "log2 fold change": "inactive: -0.006"},
      {"target": "SMUG1 (UniProt Q53HV7)", "log2 fold change": "inactive: 0.047"},
      {"target": "SNRPD2 (UniProt P62316)", "log2 fold change": "inactive: 0.021"},
      {"target": "SMYD5 (UniProt Q6GMV2)", "log2 fold change": "inactive: -0.007"},
      {"target": "SNX9 (UniProt Q9Y5X1)", "log2 fold change": "inactive: -0.065"},
      {"target": "SNRPB isoform 3 (UniProt P14678)", "log2 fold change": "inactive: 0.012"},
      {"target": "SNRPC (UniProt Q5TAL2)", "log2 fold change": "inactive: 0.136"}
    ]}
  ]
}
